Reference: article PMC3762332

Chains of the proteins cited; added tags and fusions are not shown. Lines headed by an entry give the natural chain unless they say otherwise; changes in a name come on top.
UniProt O00716: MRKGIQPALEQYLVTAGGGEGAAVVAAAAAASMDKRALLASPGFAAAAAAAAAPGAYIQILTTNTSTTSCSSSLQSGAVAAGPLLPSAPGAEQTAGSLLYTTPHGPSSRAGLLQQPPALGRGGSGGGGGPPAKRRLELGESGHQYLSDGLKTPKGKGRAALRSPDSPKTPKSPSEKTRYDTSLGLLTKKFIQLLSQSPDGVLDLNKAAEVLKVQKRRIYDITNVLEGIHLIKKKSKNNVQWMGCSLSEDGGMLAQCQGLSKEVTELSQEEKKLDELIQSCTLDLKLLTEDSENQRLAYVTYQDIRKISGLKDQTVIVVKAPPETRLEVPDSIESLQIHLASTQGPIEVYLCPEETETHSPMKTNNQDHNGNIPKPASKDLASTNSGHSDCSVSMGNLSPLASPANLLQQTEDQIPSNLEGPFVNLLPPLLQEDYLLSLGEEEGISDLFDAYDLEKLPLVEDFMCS
UniProt Q9BWM5: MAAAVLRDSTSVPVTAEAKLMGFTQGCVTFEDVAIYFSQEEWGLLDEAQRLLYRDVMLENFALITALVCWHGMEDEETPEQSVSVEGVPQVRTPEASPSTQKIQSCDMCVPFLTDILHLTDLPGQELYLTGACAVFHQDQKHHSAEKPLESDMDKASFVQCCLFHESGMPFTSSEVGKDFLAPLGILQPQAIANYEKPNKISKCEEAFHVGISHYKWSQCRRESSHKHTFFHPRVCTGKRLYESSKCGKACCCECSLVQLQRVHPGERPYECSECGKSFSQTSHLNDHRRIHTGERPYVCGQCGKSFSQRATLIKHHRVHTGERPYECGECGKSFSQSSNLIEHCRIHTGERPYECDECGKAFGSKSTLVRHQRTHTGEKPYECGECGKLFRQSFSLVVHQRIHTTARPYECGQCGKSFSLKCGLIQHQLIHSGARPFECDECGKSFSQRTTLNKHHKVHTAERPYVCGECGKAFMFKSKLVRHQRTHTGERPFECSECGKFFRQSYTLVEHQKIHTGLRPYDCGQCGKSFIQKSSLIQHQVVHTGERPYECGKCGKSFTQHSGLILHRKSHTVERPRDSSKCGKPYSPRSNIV
UniProt P43694: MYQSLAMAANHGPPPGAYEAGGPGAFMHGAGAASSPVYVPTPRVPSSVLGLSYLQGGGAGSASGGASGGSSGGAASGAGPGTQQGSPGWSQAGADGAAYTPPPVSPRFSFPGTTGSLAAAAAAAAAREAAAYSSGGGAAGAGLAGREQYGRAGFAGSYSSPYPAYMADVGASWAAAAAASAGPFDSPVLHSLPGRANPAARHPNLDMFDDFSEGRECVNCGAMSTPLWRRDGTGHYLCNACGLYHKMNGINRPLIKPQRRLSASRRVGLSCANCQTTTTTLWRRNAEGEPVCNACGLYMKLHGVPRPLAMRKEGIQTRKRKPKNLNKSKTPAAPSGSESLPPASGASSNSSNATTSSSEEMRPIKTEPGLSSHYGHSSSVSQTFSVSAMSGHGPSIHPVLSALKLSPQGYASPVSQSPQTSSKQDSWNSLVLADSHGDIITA
UniProt P20719: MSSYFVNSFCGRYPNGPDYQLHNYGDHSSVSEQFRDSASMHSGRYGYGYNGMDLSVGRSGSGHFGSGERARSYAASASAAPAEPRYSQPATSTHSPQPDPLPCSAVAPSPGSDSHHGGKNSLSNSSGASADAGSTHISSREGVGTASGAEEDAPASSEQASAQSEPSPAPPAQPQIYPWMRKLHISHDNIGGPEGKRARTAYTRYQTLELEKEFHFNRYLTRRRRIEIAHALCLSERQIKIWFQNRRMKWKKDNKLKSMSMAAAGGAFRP
UniProt Q8NC26: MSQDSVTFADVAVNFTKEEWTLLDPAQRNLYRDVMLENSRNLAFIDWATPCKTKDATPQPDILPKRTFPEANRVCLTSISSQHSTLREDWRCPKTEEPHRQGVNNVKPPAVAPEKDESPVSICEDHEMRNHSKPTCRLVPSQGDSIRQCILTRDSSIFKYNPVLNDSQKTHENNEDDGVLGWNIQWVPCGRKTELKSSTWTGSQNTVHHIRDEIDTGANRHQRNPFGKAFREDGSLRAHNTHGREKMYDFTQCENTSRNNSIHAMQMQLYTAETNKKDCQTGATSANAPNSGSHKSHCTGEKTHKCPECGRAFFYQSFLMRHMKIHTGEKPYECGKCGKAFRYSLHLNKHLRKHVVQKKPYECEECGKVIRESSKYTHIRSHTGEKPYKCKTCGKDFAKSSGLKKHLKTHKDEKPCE
UniProt P37231: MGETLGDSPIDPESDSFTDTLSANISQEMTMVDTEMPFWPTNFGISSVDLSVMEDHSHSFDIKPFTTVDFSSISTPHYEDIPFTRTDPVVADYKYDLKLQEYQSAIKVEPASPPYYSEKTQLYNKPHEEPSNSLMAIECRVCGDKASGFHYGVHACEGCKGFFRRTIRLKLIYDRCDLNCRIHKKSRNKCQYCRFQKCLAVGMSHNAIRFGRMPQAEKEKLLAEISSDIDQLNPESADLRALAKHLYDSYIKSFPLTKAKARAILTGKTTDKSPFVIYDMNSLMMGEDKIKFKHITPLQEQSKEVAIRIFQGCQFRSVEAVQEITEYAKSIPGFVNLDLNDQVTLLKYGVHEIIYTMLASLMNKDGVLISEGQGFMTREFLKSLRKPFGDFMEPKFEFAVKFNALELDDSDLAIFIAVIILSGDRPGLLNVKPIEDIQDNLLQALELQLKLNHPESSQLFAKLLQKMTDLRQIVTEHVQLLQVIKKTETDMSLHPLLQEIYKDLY
UniProt P19793: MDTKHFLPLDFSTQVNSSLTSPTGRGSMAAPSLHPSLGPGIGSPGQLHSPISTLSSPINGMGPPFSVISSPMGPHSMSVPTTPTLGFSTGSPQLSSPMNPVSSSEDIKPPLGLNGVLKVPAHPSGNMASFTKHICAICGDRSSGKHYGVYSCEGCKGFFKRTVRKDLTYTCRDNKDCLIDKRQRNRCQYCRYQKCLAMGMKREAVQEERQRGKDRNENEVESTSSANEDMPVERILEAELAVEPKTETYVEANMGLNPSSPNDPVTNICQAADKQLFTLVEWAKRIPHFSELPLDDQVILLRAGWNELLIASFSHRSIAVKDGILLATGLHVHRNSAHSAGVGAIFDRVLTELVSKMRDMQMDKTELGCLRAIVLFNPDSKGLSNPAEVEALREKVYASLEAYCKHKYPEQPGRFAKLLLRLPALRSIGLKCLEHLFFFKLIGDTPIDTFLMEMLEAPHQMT
UniProt Q8IW36: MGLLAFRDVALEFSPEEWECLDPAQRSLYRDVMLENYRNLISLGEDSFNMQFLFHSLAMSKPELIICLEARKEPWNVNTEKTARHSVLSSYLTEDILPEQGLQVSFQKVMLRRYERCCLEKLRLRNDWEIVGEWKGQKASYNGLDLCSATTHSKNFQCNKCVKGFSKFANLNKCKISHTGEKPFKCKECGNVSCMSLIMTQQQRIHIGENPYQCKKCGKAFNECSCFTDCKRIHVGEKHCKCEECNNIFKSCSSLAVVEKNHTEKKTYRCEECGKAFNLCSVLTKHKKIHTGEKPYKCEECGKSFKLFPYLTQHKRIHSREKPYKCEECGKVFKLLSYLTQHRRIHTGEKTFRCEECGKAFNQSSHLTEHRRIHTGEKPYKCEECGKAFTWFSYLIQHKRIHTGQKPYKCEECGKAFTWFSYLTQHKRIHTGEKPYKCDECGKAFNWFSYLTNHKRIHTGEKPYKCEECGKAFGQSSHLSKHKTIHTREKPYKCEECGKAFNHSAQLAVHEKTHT
UniProt P05549: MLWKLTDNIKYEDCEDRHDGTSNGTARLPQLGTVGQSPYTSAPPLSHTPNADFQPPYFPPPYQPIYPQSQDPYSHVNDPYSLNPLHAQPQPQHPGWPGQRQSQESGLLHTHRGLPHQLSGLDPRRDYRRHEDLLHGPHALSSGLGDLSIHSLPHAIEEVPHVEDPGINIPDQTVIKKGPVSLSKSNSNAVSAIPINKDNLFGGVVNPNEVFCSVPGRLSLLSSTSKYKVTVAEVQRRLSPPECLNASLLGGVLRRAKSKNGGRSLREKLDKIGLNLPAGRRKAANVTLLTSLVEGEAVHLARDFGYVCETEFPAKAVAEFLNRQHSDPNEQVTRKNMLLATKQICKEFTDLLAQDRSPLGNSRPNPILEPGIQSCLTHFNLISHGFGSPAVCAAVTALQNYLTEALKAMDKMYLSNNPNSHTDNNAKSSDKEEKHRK

Legend:
Experiment in all cases: protein microarray
Settings in all cases: 10-fold cold unmethylated competitor; 5mC at CpG (SssI, both strands); recombinant protein; protein details: GST (N-terminal); label: Cy5
[1] = target: E2F3 (Homo sapiens) (UniProt O00716)
[2] = target: T1, BCL3 (Homo sapiens) (UniProt P20749)
T1 sequence (looked up, limits assumed): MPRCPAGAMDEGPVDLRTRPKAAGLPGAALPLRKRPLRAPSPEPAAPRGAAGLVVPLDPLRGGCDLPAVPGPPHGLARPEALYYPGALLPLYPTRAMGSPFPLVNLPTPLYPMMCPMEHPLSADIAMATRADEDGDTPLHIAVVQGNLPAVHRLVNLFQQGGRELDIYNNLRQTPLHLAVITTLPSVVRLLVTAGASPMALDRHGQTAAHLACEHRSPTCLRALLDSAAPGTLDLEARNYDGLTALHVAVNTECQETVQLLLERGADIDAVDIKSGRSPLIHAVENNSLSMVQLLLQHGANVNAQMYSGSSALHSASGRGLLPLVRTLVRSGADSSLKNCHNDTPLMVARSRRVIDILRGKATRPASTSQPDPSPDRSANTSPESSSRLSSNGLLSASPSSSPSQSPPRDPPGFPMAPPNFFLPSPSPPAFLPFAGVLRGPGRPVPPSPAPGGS

[3] = target: ZNF416 (Homo sapiens) (UniProt Q9BWM5)
[4] = target: GATA4 (Homo sapiens) (UniProt P43694)
[5] = target: T2, SCAPER (Homo sapiens) (UniProt Q9BY12)
T2 sequence (looked up, limits assumed): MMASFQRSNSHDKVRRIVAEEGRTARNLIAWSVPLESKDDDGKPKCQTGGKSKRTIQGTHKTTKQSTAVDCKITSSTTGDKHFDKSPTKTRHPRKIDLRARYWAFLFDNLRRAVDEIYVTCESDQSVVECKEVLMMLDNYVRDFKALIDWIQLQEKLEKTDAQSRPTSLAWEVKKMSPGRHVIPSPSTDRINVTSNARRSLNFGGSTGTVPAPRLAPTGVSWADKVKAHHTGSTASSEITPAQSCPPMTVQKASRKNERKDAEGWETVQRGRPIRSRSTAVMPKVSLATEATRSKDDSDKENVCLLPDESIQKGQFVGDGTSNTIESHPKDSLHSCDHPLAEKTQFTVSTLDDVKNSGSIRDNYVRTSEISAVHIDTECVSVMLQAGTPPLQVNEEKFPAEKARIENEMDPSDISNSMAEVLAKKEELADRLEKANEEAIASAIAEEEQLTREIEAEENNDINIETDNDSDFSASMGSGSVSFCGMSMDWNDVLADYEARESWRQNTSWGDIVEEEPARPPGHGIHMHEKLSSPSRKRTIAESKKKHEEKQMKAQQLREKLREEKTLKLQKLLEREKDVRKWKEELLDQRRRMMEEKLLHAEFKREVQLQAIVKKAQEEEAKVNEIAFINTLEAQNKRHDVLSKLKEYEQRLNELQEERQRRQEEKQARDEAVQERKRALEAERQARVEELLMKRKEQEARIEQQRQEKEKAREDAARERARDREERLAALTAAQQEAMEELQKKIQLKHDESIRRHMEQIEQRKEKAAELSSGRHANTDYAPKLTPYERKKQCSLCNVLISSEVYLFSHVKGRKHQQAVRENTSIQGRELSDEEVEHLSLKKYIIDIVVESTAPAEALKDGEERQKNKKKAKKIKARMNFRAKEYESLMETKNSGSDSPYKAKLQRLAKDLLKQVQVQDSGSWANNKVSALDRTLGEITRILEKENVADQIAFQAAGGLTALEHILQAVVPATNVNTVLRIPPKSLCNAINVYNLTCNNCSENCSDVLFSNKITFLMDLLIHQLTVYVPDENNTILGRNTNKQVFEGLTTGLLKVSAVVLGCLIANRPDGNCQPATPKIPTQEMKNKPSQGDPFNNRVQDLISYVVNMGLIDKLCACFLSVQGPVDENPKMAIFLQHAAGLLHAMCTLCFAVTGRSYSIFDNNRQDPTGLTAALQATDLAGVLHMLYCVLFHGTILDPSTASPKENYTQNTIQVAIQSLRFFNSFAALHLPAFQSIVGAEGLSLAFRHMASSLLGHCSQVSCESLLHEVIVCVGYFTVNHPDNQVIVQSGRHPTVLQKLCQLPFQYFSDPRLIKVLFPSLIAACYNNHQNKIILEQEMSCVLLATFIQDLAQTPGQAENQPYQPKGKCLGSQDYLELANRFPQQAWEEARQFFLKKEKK

[6] = target: T3, RNF138 (Homo sapiens) (UniProt Q8WVD3)
T3 sequence (looked up, limits assumed): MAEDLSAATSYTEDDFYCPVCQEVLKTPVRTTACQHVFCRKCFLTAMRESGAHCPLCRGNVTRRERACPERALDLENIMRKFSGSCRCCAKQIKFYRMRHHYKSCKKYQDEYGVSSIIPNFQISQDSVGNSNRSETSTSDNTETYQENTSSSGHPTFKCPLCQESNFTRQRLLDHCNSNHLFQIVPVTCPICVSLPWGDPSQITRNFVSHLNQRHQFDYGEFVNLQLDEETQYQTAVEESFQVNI

[7] = target: HOXA5 (Homo sapiens) (UniProt P20719)
[8] = target: ZNF114 (Homo sapiens) (UniProt Q8NC26)
[9] = target: PPARG (Homo sapiens) (UniProt P37231)
[10] = target: RXRA (Homo sapiens) (UniProt P19793)
[11] = target: ZNF695 (Homo sapiens) (UniProt Q8IW36)
[12] = target: TFAP2A (Homo sapiens) (UniProt P05549)
[13] = target: T4, NRF1 (Homo sapiens) (UniProt Q16656)
T4 sequence (looked up, limits assumed): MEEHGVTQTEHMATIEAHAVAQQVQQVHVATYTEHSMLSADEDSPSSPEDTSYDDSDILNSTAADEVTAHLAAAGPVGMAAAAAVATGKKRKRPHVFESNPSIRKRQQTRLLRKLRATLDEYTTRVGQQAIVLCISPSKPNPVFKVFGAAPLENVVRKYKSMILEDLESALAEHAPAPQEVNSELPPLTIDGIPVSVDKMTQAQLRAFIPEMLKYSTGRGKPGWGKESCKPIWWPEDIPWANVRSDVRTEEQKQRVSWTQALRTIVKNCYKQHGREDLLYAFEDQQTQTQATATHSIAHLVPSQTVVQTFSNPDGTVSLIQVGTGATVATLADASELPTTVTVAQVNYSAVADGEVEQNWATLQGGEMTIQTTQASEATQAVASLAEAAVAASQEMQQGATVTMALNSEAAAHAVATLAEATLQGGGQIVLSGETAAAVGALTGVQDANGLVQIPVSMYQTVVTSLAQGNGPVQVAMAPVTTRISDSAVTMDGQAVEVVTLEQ

[14] = target: T5, ZCCHC7 (Homo sapiens) (UniProt Q8N3Z6)
T5 sequence (looked up, limits assumed): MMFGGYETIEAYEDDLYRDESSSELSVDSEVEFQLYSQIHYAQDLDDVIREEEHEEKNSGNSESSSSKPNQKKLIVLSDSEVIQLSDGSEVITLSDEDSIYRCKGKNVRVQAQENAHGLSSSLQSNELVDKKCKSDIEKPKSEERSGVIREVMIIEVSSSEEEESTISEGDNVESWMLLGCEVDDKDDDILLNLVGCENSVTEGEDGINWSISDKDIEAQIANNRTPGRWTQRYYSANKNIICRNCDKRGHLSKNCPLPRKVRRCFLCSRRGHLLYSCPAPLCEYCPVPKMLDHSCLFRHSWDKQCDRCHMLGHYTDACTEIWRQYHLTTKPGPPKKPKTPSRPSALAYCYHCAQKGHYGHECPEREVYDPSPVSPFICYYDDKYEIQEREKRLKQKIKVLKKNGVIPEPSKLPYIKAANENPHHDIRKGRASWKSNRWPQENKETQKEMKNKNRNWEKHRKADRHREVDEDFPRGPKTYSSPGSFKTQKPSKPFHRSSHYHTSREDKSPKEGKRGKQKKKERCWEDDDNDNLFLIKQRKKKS

Measured: binding result

CTCCCCGAAACTCCCCGCCCTATAGTGAGTGCTATTA (double strand) [M85]
not listed: [11] | [12] | [13] | [14]
binds: all other assays above

GAAACCCCTGGAATATTCCCGACAAAGAAACCCCTGGAATATTCCCGACCCCTATAGTGAGTGCTATTA (double strand) [M59]
binds: [1] | [11] | [3] | [4] | [5] | [8] | [9] | [12]

TCAAGGACGTTTTCAAGGACGCCCTATAGTGAGTGCTATTA (double strand) [M372]
not listed: [12] | [14]
binds: all other assays above

ACTTGCGCCAAAACTTGCGCCCCCTATAGTGAGTGCTATTA (double strand) [M252]
binds: [1] | [11] | [3] | [4] | [8] | [12]

GGCGCCCTTTGGCGCCCCCCTATAGTGAGTGCTATTA (double strand) [M292]
not listed: [2] | [13] | [14]
binds: all other assays above

AGGGCGGAAAAGGGCGGCCCTATAGTGAGTGCTATTA (double strand) [M71]
not listed: [6] | [10] | [11] | [12]
binds: all other assays above

GCCACGCCAAAGCCACGCCCCCTATAGTGAGTGCTATTA (double strand) [M89]
not listed: [11] | [12] | [13]
binds: all other assays above

CGCCATGGCAACAAACGCCATGGCAACCCCTATAGTGAGTGCTATTA (double strand) [M249]
binds: [1] | [11] | [3] | [8] | [12]

For at least one entry, the source does not settle the construct or the ends of the probe. For some of these results: Protein sequences can lack the tags named with them.
